{
  "source": "patent US20110200618A1",
  "about": "“ERBB4 INHIBITORS AND USES THEREOF IN TREATMENT OF NEUROPSYCHIATRIC DISORDERS” (priority 2008, published 2011)",
  "system": "NRG1 induced ERK activation",
  "assay": "NRG1 induced ERK activation in human olfactory epithelial (hOE) cultures, western blot",
  "type": "cell-based",
  "conditions": "healthy person, inhibitors 20 min, then 100 ng/ml NRG1 10 min, 10 μM U0126, 10 nM wortmannin, 100 nM K-252, 2.5 μM AG1478, 1 μM AG879",
  "note": "At least one compound was matched to its structure with a doubt left.",
  "data": [
    {"smiles": "COC[C@H]1OC(=O)c2coc3c2[C@@]1(C)C1=C(C3=O)[C@@H]2CCC(=O)[C@@]2(C)C[C@H]1OC(C)=O", "note": "[wortmannin]", "values": [
      {"measurement": "NRG1 induced p-ERK with respect to GAPDH", "value": "reduced but to a lesser degree"}
    ]}
  ]
}
